For the test, the target named is T1, EIN2C^479–1294 fused to Cerulean (Arabidopsis thaliana) (UniProt Q9S814).
T1 sequence: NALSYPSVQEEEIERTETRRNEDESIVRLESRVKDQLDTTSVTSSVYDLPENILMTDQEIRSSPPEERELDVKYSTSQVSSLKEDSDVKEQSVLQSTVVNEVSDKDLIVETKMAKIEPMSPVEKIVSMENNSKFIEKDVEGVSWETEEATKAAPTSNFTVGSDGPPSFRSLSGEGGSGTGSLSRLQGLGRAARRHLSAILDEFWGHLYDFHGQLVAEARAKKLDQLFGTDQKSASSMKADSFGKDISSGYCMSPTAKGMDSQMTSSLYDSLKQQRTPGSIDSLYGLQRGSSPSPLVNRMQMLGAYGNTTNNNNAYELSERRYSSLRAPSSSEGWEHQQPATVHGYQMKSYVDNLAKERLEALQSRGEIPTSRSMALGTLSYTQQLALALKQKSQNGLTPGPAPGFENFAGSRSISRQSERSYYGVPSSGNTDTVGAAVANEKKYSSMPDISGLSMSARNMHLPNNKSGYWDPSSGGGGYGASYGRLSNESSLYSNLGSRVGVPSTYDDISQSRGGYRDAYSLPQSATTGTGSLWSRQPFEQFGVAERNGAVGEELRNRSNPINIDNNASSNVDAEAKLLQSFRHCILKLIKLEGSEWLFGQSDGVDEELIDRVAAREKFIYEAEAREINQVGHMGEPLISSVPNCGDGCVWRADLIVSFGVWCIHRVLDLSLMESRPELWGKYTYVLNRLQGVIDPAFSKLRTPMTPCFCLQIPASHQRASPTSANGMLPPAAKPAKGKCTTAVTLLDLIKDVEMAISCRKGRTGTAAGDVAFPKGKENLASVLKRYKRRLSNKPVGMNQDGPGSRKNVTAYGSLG
Kind of test: FRET or BRET; in planta FLIM-FRET in transiently transformed N. benthamiana epidermal leaf cells; Cerulean fusion as donor, YFP fusions as acceptors; cytosol, ER or nucleus (IMPα5-YFP and IMPα6-YFP: nuclei only).

The values that follow come from article PMC12871931, “The importin‐alpha superfamily engages in ethylene signaling by shuttling ETHYLENE INSENSITIVE 2 from the endoplasmic reticulum to the nucleus” (The Febs Journal, 2025).

These are yes or no findings as the source states them, for the method shown. In cells and extracts the contact can be indirect. Some binding calls cover weakened binding; strength is not graded here. Where a sequence is shown, tags or fusion partners need not be part of it.

B1: IMPα7 fused to YFP (protein, UniProt Q9M9X7 1-528)
chain: MKGGETMSVRRSGYKAVVDGVGGRRRREDDMVEIRKAKREESLLKKRREALPHSPSADSLDQKLISCIWSDERDLLIEATTQIRTLLCGEMFNVRVEEVIQAGLVPRFVEFLTWDDSPQLQFEAAWALTNIASGTSENTEVVIDHGAVAILVRLLNSPYDVVREQVVWALGNISGDSPRCRDIVLGHAALPSLLLQLNHGAKLSMLVNAAWTLSNLCRGKPQPPFDQVSAALPALAQLIRLDDKELLAYTCWALVYLSDGSNEKIQAVIEANVCARLIGLSIHRSPSVITPALRTIGNIVTGNDSQTQHIIDLQALPCLVNLLRGSYNKTIRKEACWTVSNITAGCQSQIQAVFDADICPALVNLLQNSEGDVKKEAAWAICNAIAGGSYKQIMFLVKQECIKPLCDLLTCSDTQLVMVCLEALKKILKVGEVFSSRHAEGIYQCPQTNVNPHAQLIEEAEGLEKIEGLQSHENNDIYETAVKILETYWMEEEEEEDQEQQDMIYFPVDNFANMPTSSGTLSEMHCGP
As to B1, the binding result is listed as “binds”.

B2: IMPα6 fused to YFP (protein, UniProt Q9FWY7 1-538)
chain: MSYKPSAKTEVRRNRYKVSVDADEGRRRREDNMVEIRKNKREENLQKKRREGFNPSMASQPGQDFSSSLPTETRLENIQQMIAGVMSEDRDLQLEATASFRRLLSIERNPPINEVVQSGVVPHIVQFLSRDDFTQLQFEAAWALTNIASGTSENTRVIIDSGAVPLFVKLLSSASEEVREQAVWALGNVAGDSPKCRDHVLSCEAMMSLLAQFHEHSKLSMLRNATWTLSNFCRGKPQPAFEQTKAALPALERLLHSTDEEVLTDASWALSYLSDGTNEKIQTVIDAGVIPRLVQLLAHPSPSVLIPALRTIGNIVTGDDIQTQAVISSQALPGLLNLLKNTYKKSIKKEACWTISNITAGNTSQIQEVFQAGIIRPLINLLEIGEFEIKKEAVWAISNATSGGNHDQIKFLVSQGCIRPLCDLLPCPDPRVVTVTLEGLENILKVGEAEKNLGNTGNDNLYAQMIEDADGLDKIENLQSHDNNEIYEKAVKILESYWAADDEEEDIGGVDAPENVQSSGFQFGNQSGNAPTGGFNFG
B2: the binding result is listed as “binds”.
